Measured values taken from the supplement of paper PMC6078165.
The reference is the same well before dosing, and untreated signal decays as well.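 Labels refer to human fibroblasts, largely primary: uterine (C12385, HUF), lung (H6013), bone (Hs27A), adrenal (HADF), skin (WS1), plus mammary HMF and breast cancer-associated Hs343T. Cancer lines are basal-like or mesenchymal-like triple-negative breast cancer. The paper counts as hits responses shifting over 3x the replicate standard deviation. The tissue of the other fibroblasts is not given here.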

Test system: MDAMB231
Experiment: relative JC-1 red fluorescence (viability) vs pre-drug, coculture with fibroblast (fraction); higher = more viable cancer cells
Method: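 JC-1 labelled TNBC cells cocultured 1:1 (1,500 cells each) with CellTrace Violet stained primary or stromal fibroblasts in 384-well plates in FluoroBrite medium, treated with one of 42 anticancer drugs at 0.1, 1, 10 or 100 uM. JC-1 red fluorescence (mitochondrial integrity in cancer cells only) was read by plate reader every 8 h for 72 h. Values are normalised to each well's pre-drug value. The stock of one drug was tenfold lower, so its dose labels may be too high.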

CC[C@]1(O)C[C@@H]2CN(CCc3c([nH]c4ccccc34)[C@@](C(=O)OC)(c3cc4c(cc3OC)N(C)[C@H]3[C@@](O)(C(=O)OC)[C@H](OC(C)=O)[C@]5(CC)C=CCN6CC[C@]43[C@@H]65)C2)C1 [Vinblastine]
relative JC-1 red fluorescence
Settings	8 h	16 h	24 h	32 h	40 h	48 h	56 h	64 h	72 h
0.1 µM, coculture fibroblast: C12385	0.749	0.707	0.617	0.5921	0.5229	0.48	0.4442	0.44274	0.431
0.1 µM, coculture fibroblast: H6013	0.84	0.7979	0.7681	0.755	0.714	0.709	0.691	0.682	0.651
0.1 µM, coculture fibroblast: H6019	0.769	0.722	0.68	0.638	0.59	0.576	0.551	0.558	0.5385
0.1 µM, coculture fibroblast: H6076	0.8381	0.762	0.702	0.672	0.626	0.594	0.5697	0.5691	0.576
0.1 µM, coculture fibroblast: H6231	0.945	0.826	0.743	0.693	0.639	0.598	0.551	0.529	0.506
0.1 µM, coculture fibroblast: HADF	0.859	0.81	0.765	0.729	0.6865	0.656	0.632	0.621	0.586
0.1 µM, coculture fibroblast: HCFa	0.8585	0.803	0.752	0.705	0.639	0.576	0.543	0.508	0.467
0.1 µM, coculture fibroblast: HCPF	0.87543	0.769	0.6999	0.659	0.601	0.564	0.524	0.496	0.4825
0.1 µM, coculture fibroblast: HHSteC	0.87147	0.882	0.848	0.814	0.772	0.722	0.673	0.641	0.588
0.1 µM, coculture fibroblast: HMF	0.846	0.742	0.667	0.624	0.571	0.525	0.496	0.491	0.485
0.1 µM, coculture fibroblast: HPFa	0.947	0.891	0.854	0.795	0.78	0.762	0.698	0.664	0.634
0.1 µM, coculture fibroblast: HUF	0.852	0.7181	0.745	0.625	0.573	0.564	0.516	0.522	0.524
0.1 µM, coculture fibroblast: Hs5	0.839	0.782	0.732	0.691	0.653	0.599	0.572	0.549	0.5415
0.1 µM, coculture fibroblast: Hs27A	0.8907	0.7838	0.756	0.7198	0.65297	0.598	0.576	0.558	0.515
0.1 µM, coculture fibroblast: Hs343T	0.8367	0.738	0.687	0.661	0.613	0.57	0.527	0.515	0.5
0.1 µM, coculture fibroblast: WS1	0.727	0.6718	0.608	0.549	0.499	0.48	0.453	0.463	0.459
1 µM, coculture fibroblast: C12385	0.7605	0.731	0.732	0.69	0.618	0.607	0.576	0.601	0.596
1 µM, coculture fibroblast: H6013	0.8803	0.80783	0.797	0.784	0.743	0.732	0.721	0.722	0.686
1 µM, coculture fibroblast: H6019	0.7688	0.688	0.6971	0.6415	0.619	0.623	0.602	0.633	0.6105
1 µM, coculture fibroblast: H6076	0.834	0.814	0.794	0.783	0.7527	0.731	0.717	0.712	0.713
1 µM, coculture fibroblast: H6231	0.917	0.817	0.741	0.695	0.639	0.613	0.566	0.553	0.524
1 µM, coculture fibroblast: HADF	0.873	0.818	0.795	0.763	0.722	0.695	0.671	0.669	0.639
1 µM, coculture fibroblast: HCFa	0.897	0.844	0.819	0.781	0.736	0.695	0.655	0.629	0.577
1 µM, coculture fibroblast: HCPF	0.9093	0.823	0.766	0.735	0.685	0.649	0.618	0.591	0.568
1 µM, coculture fibroblast: HHSteC	0.872	0.853	0.821	0.785	0.749	0.729	0.678	0.663	0.625
1 µM, coculture fibroblast: HMF	0.92	0.858	0.839	0.822	0.793	0.766	0.739	0.721	0.714
1 µM, coculture fibroblast: HPFa	0.935	0.909	0.858	0.798	0.774	0.74	0.68	0.66	0.6107
1 µM, coculture fibroblast: HUF	0.846	0.739	0.741	0.629	0.567	0.541	0.492	0.483	0.459
1 µM, coculture fibroblast: Hs5	0.867	0.822	0.789	0.75	0.72	0.673	0.6431	0.615	0.6017
1 µM, coculture fibroblast: Hs27A	0.913	0.853	0.804	0.776	0.724	0.668	0.6586	0.639	0.6008
1 µM, coculture fibroblast: Hs343T	0.8874	0.77	0.717	0.68	0.618	0.577	0.526	0.506	0.483
1 µM, coculture fibroblast: WS1	0.708	0.633	0.616	0.54	0.498	0.487	0.456	0.482	0.476
